Data from PubChem BioAssay AID330 (DTP/NCI, 2004).
The list does not hold the whole screen: it gathers tests that were run many times, whatever their T/C, doses with no T/C, and many T/C values between a quarter and a half above the control. Other doses and runs of a compound stand elsewhere. T/C: endpoint of the treated group in % of that of the vehicle group. Some entries give survivors of the animals treated and no T/C: the source files T/C as zero there, which appears to mark a toxic dose or a test without result, not a measured value. Some survivor counts are full or nearly so, which does not show that the dose was tolerated: the source hardly ever lists a survival T/C far under the control, and the zero likely stands for such cases as well. Counts of survivors are from the toxicity check (mostly the fifth day) where no day follows; animals may have died later. Schedules are NCI's codes, read here as Q, the interval in days (D) or hours (H), X, the number of doses. Some entries hold several experiments; the values are given in rising order. For survival time, this PubChem deposit counts one and a half times the control or more as active, and values a quarter to a half above the control carry no call in these data; other NCI protocols may use other cut-offs. Some T/C values carry the count of animals alive at the toxicity check (mostly the fifth day); without a count, all were alive then.

Test system: P388 leukemia ip, CD2F1 mice, survival T/C
Experiment: NCI In Vivo Anticancer Drug Screen. Data for tumor model P388 Leukemia (intraperitoneal) in CD2F1 (CDF1) mice
Conditions: T/C endpoint: median survival time, higher T/C = longer survival
[1] = dose: 200.0 mg/kg/injection, schedule: Q01DX005 (ip), vehicle: Klucel (hydroxypropylcellulose) (HPC)
[2] = dose: 200.0 mg/kg/injection, schedule: Q01DX009 (ip), vehicle: Klucel (hydroxypropylcellulose) (HPC)

Compound: CCCCc1c(O)nc2nc(-c3ccccc3)c(-c3ccccc3)nn2c1=O
- survivor count (dose: 50.0 mg/kg/injection, schedule: Q01DX005 (ip), vehicle: Klucel (hydroxypropylcellulose) (HPC)): 6 of 6
- survivor count (dose: 100.0 mg/kg/injection, schedule: Q01DX005 (ip), vehicle: Klucel (hydroxypropylcellulose) (HPC)): 6 of 6
- survivor count [1]: 6 of 6

Compound: COC(=O)C1C(O)C(C)C(O)OC1C(C)C(O)C(C)/C=C\C=C(/C)C(=O)Nc1c(C)c(OC(C)=O)c2c(c1O)C(=O)C(C)=C1OCOC(/C(C)=C/C(C)=O)=C12 (configuration not stated)
- survivor count [2]: 1 of 6

Compound: C=C(CO)C(=O)OC1CC(=C)C2CC(O)C(C)C2C2OC(=O)C(=C)C12 (configuration not stated)
- T/C (dose: 3.0 mg/kg/injection, schedule: Q01DX009 (ip), vehicle: Klucel (hydroxypropylcellulose) (HPC)): 125 % of control

Compound: CCOC(=O)c1ccc(N2C(C(=O)OCC)Nc3ccc(C(=O)OCC)cc3C2C(=O)OCC)cc1 (configuration not stated)
- survivor count (dose: 400.0 mg/kg/injection, schedule: Q04DX002 (ip), vehicle: Klucel (hydroxypropylcellulose) (HPC)): 6 of 6

Compound: Cc1ccc(C(C)(N=[N+]=[N-])c2ccccc2)cc1C (configuration not stated)
- survivor count (dose: 200.0 mg/kg/injection, schedule: Q01DX009 (ip), vehicle: saline with Tween-80): 4 of 6

Compound: O=C1c2ccccc2C(=O)c2c3c(cc(NCCNCCO)c21)N(CCO)CCN3
- T/C (dose: 25.0 mg/kg/injection, schedule: Q01DX009 (ip), vehicle: DMSO): 135 % of control

Compound: C=C1CC2(OC1=O)C(=O)N(C)c1ccc(I)cc12 (configuration not stated)
- T/C (dose: 12.5 mg/kg/injection, schedule: Q01DX009 (ip), vehicle: saline): 126 and 129 % of control
- T/C (dose: 25.0 mg/kg/injection, schedule: Q01DX009 (ip), vehicle: saline): 139 % of control [5 of 6 alive]
- survivor count (dose: 50.0 mg/kg/injection, schedule: Q01DX009 (ip), vehicle: saline): 3 of 6
- survivor count (dose: 100.0 mg/kg/injection, schedule: Q01DX009 (ip), vehicle: saline): 0 of 6 and 2 of 6

Compound: COc1cc2c(C)nc3c4cc5c(cc4ccc3c2cc1OC)OCO5
- survivor count (dose: 100.0 mg/kg/injection, schedule: Q01DX009 (ip), vehicle: water): 6 of 6
- survivor count (dose: 200.0 mg/kg/injection, schedule: Q01DX009 (ip), vehicle: water): 6 of 6
- survivor count (dose: 400.0 mg/kg/injection, schedule: Q01DX009 (ip), vehicle: water): 4 of 6

Compound: COCC(O)Cn1ccnc1[N+](=O)[O-] (configuration not stated)
- T/C (dose: 4.0 mg/kg/injection, schedule: Q01DX009 (ip), vehicle: saline + alcohol): 127 % of control
- T/C (dose: 8.0 mg/kg/injection, schedule: Q01DX009 (ip), vehicle: saline + alcohol): 127 % of control
- T/C (dose: 16.0 mg/kg/injection, schedule: Q01DX009 (ip), vehicle: saline + alcohol): 126 % of control
- T/C (dose: 32.0 mg/kg/injection, schedule: Q01DX009 (ip), vehicle: saline + alcohol): 127 % of control
- T/C (dose: 512.0 mg/kg/injection, schedule: Q01DX009 (ip), vehicle: saline + alcohol): 127 % of control [5 of 6 alive]

Compound: CC12CCC3C(CCC4=CC(OC5OC(CO)C(O)C(O)C5O)CCC43C=O)C1(O)CCC2c1ccc(=O)oc1 (configuration not stated)
- survivor count (dose: 0.06 mg/kg/injection, schedule: Q01DX009 (ip), vehicle: saline + alcohol): 2 of 4

Compound: O=C(c1ccccc1)N1C=CN(C(=O)c2ccccc2)C(c2ccccc2)C1c1ccccc1 (configuration not stated)
- survivor count (dose: 240.0 mg/kg/injection, schedule: Q01DX005 (ip), vehicle: Klucel (hydroxypropylcellulose) (HPC)): 6 of 6

Compound: C(=C\c1ccncc1)/c1ccccc1
- survivor count [1]: 2 of 6

Compound: COc1ccc(C(=O)CSC(=S)N2CCCCC2)cc1
- survivor count [2]: 6 of 6

Compound: CN(C)CCC#N
- survivor count (dose: 400.0 mg/kg/injection, schedule: Q01DX009 (ip), vehicle: saline): 0 of 6

Compound: CCCC/C=C(\C#N)SCC
- survivor count (dose: 150.0 mg/kg/injection, schedule: Q01DX009 (ip), vehicle: saline with Tween-80): 4 of 6
- survivor count (dose: 300.0 mg/kg/injection, schedule: Q01DX009 (ip), vehicle: saline with Tween-80): 0 of 6
